Reference: the supplement of paper PMC4604168 (melanoma cell lines)
Some of the results follow. Single values are uncertain, as repeats are few or missing.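 Imaging used 1,536-well plates; nuclei positive for cleaved PARP by antibody were divided by total DNA-stained nuclei to yield the apoptosis fraction. Doses for screening kept most cells viable, and cell lines differ markedly in resting and induced cleaved-PARP levels.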

Tests used:
Test in all cases: cleaved PARP positive nuclei fraction relative to DMSO control; melanoma cells; higher = more apoptosis
Settings in all cases: library dose: low library concentration; 72 h
501Mel = test system: 501Mel
A101D = test system: A101D
A2058 = test system: A2058
A375 = test system: A375
C32 = test system: C32
CBRC013 = test system: CBRC013 (line from a melanoma biopsy)
CBRC014 = test system: CBRC014 (line from a melanoma biopsy)
CBRC016 = test system: CBRC016 (line from a melanoma biopsy)
CBRC017 = test system: CBRC017 (line from a melanoma biopsy)
CBRC034 = test system: CBRC034 (line from a melanoma biopsy)
COLO792 = test system: COLO792
COLO800 = test system: COLO800
COLO829 = test system: COLO829
G361 = test system: G361
IPC-298 = test system: IPC-298
IST-MEL1 = test system: IST-MEL1
LB2518-MEL = test system: LB2518-MEL
LOXIMVI = test system: LOXIMVI

SMILES	cleaved PARP positive nuclei fraction (501Mel)	cleaved PARP positive nuclei fraction (A101D)	cleaved PARP positive nuclei fraction (A2058)	cleaved PARP positive nuclei fraction (A375)	cleaved PARP positive nuclei fraction (C32)	cleaved PARP positive nuclei fraction (CBRC013)	cleaved PARP positive nuclei fraction (CBRC014)	cleaved PARP positive nuclei fraction (CBRC016)	cleaved PARP positive nuclei fraction (CBRC017)	cleaved PARP positive nuclei fraction (CBRC034)	cleaved PARP positive nuclei fraction (COLO792)	cleaved PARP positive nuclei fraction (COLO800)	cleaved PARP positive nuclei fraction (COLO829)	cleaved PARP positive nuclei fraction (G361)	cleaved PARP positive nuclei fraction (IPC-298)	cleaved PARP positive nuclei fraction (IST-MEL1)	cleaved PARP positive nuclei fraction (LB2518-MEL)	cleaved PARP positive nuclei fraction (LOXIMVI)
O=C(Nc1cccc(Cl)c1)Nc1ncc(CCNc2ncnc3ccsc23)s1 + CCc1ccc(CCOc2ccc(CC3SC(=O)NC3=O)cc2)nc1 [pioglitazone] (first compound 0.0008 µM, partner dose 2 µM)	176%	78.6%	63.6%	140%	125%	38%	111%	126%	178%	86.9%	70.3%	55.3%	63.7%	122%	29.1%	43.5%	66.7%	49.6%
CC1(C)NC(=O)N(c2ccc([N+](=O)[O-])c(C(F)(F)F)c2)C1=O [nilutamide] + COc1ccc(COc2ccc(Cc3cnc(N)nc3N)cc2OC)cc1 [GW2580] (first compound 1 µM, partner dose 1 µM)	73.4%	48.7%	25.2%	57.6%	152%	44.9%	68.1%	147%	106%	95.9%	174%	133%	71.5%	98.5%	62.2%	159%	82.7%	57.8%
Cn1nnc2c(C(N)=O)ncn2c1=O [temozolomide] + c1cc(-c2cnn3cc(-c4ccc(OCCN5CCCCC5)cc4)cnc23)ccn1 [Dorsomorphin] (first compound 2 µM, partner dose 0.4 µM)	126%	34.9%	156%	146%	26.3%	539%	110%	37.9%	170%	59.3%	72.7%	84.7%	81.1%	146%	192%	42.2%	70.6%	22.9%
Cc1nc(Nc2ncc(C(=O)Nc3c(C)cccc3Cl)s2)cc(N2CCN(CCO)CC2)n1 [dasatanib] + O=C(Nc1ccccc1)c1cc([N+](=O)[O-])ccc1Cl [GW9662] (first compound 0.004 µM, partner dose 2 µM)	77.8%	94.7%	148%	202%	423%	350%	102%	46.8%	187%	95.3%	70.3%	108%	55.1%	128%	43.9%	70.6%	90.6%	784%
OCCn1cc(-c2cnc3nnn(Cc4ccc5ncccc5c4)c3n2)cn1 + O=C1NC(=O)/C(=C/c2ccc(-c3ccc(F)cc3O)o2)S1 [AS252424] (first compound 1 µM, partner dose 1 µM)	78%	104%	70.5%	138%	149%	31.6%	80.1%	116%	81.7%	73.6%	94.6%	77.9%	81.7%	63.1%	77.3%	57.7%	90.7%	79.1%
Cn1cncc1[C@@](N)(c1ccc(Cl)cc1)c1ccc2c(c1)c(-c1cccc(Cl)c1)cc(=O)n2C [tipifarnib] + CCc1ccc(CCOc2ccc(CC3SC(=O)NC3=O)cc2)nc1 [pioglitazone] (first compound 0.01 µM, partner dose 2 µM)	106%	42.7%	98.3%	112%	90.2%	85.6%	102%	83.2%	94.3%	114%	148%	45.5%	132%	98.7%	130%	46%	194%	251%
COc1cc(Nc2ncc(F)c(Nc3ccc4c(n3)NC(=O)C(C)(C)O4)n2)cc(OC)c1OC [Tamatinib] + Oc1cc(-c2nc(-c3ccccc3)[nH]c2-c2ccncc2)ccc1Cl [L779450] (first compound 0.4 µM, partner dose 0.2 µM)	109%	101%	81.7%	816%	54.6%	71.4%	68.2%	91.7%	38.4%	124%	248%	177%	144%	122%	44%	94%	108%	81.4%
CO[C@@H]1[C@H](N(C)C(=O)c2ccccc2)C[C@H]2O[C@]1(C)n1c3ccccc3c3c4c(c5c6ccccc6n2c5c31)C(=O)NC4 [Midostaurin] + O=C(Nc1ccccc1)c1cc([N+](=O)[O-])ccc1Cl [GW9662] (first compound 0.08 µM, partner dose 2 µM)	43.6%	187%	135%	103%	139%	288%	102%	130%	97.4%	88.5%	76.8%	63%	54.9%	114%	68%	83.3%	132%	72.5%
Cn1cncc1[C@@](N)(c1ccc(Cl)cc1)c1ccc2c(c1)c(-c1cccc(Cl)c1)cc(=O)n2C [tipifarnib] + COc1cc2ncnc(Nc3ccc(Oc4ccccc4)cc3)c2cc1OC [SrcI1] (first compound 0.01 µM, partner dose 2 µM)	266%	168%	116%	156%	92.9%	99.2%	111%	57.5%	89.8%	109%	114%	108%	76.2%	158%	78.7%	91.2%	94.5%	23.3%
Cc1cc(N2CCOCC2)cc2[nH]c(-c3c(NC[C@@H](O)c4cccc(Cl)c4)cc[nH]c3=O)nc12 + O=c1cc(-c2cccc3c2Sc2ccccc2S3)oc(N2CCOCC2)c1 [KU55933] (first compound 0.2 µM, partner dose 1 µM)	209%	118%	75.2%	164%	102%	419%	204%	68.7%	86%	301%	119%	277%	80.5%	59%	120%	225%	143%	57%
O=C(Nc1cccc(Cl)c1)Nc1ncc(CCNc2ncnc3ccsc23)s1 + O=C(O)C(=O)Nc1sc2c(c1C(=O)O)CCNC2 [TCS401] (first compound 0.0008 µM, partner dose 1.66667 µM)	75%	123%	77.1%	140%	39.1%	439%	97%	63.6%	59.1%	86.4%	67%	122%	110%	101%	39.1%	131%	82%	33.4%
C[C@@H]1CCN(C(=O)CC#N)C[C@@H]1N(C)c1ncnc2[nH]ccc12 + COc1ccc(-c2ccc3c(N4CCOCC4)nc(N4C[C@@H](C)O[C@@H](C)C4)nc3n2)cc1CO [KU0063794] (first compound 1 µM, partner dose 0.02 µM)	120%	188%	135%	43.2%	104%	60.3%	92.9%	76.5%	142%	28.9%	80.4%	245%	151%	32.3%	123%	42.7%	53.6%	41%
Cn1c(Nc2ccc(C(F)(F)F)cc2)nc2cc(Oc3ccnc(-c4ncc(C(F)(F)F)[nH]4)c3)ccc21 + O=C1NC(=O)/C(=C/c2ccc(-c3ccc(F)cc3O)o2)S1 [AS252424] (first compound 0.08 µM, partner dose 1 µM)	130%	610%	57.2%	207%	89.2%	131%	202%	124%	92%	160%	280%	157%	107%	177%	69.4%	119%	324%	191%
CO[C@@H]1[C@H](N(C)C(=O)c2ccccc2)C[C@H]2O[C@]1(C)n1c3ccccc3c3c4c(c5c6ccccc6n2c5c31)C(=O)NC4 [Midostaurin] + N#Cc1c(O)c2c(-c3ccc(-c4ccccc4O)cc3)csc2[nH]c1=O [A769662] (first compound 0.08 µM, partner dose 2 µM)	60.9%	53.7%	176%	127%	88.5%	74.8%	93%	48.2%	136%	99.9%	241%	147%	119%	77.7%	43%	208%	77.7%	67.3%
COCC[n+]1c2c(n(Cc3cnccn3)c1C)C(=O)c1ccccc1C2=O + COc1cc2ncnc(Nc3ccc(Oc4ccccc4)cc3)c2cc1OC [SrcI1] (first compound 0.0004 µM, partner dose 2 µM)	38.9%	200%	101%	549%	89.4%	101%	97.9%	76.8%	69.2%	80%	21.6%	81.4%	81.9%	81.1%	104%	212%	167%	30.6%
NC(=O)Nc1cc(-c2cccc(F)c2)sc1C(=O)N[C@H]1CCCNC1 + CCN(CC)CCCCNc1ncc2cc(-c3cc(OC)cc(OC)c3)c(NC(=O)NC(C)(C)C)nc2n1 [PD173074] (first compound 0.02 µM, partner dose 0.1 µM)	37.2%	199%	50.2%	492%	42.4%	91.6%	104%	66.7%	289%	127%	84.6%	173%	95.8%	61.8%	104%	49.5%	62%	29.4%
C=CCn1c(=O)c2cnc(Nc3ccc(N4CCN(C)CC4)cc3)nc2n1-c1cccc(C(C)(C)O)n1 + Oc1cc(-c2nc(-c3ccccc3)[nH]c2-c2ccncc2)ccc1Cl [L779450] (first compound 0.02 µM, partner dose 0.2 µM)	34.9%	63.2%	125%	1500%	148%	271%	155%	59.1%	77.4%	143%	108%	60%	118%	20.1%	283%	46.2%	123%	68.7%
Nc1cccc2c1CN(C1CCC(=O)NC1=O)C2=O (configuration not stated) [lenalidomide] + O=S(=O)(c1ccccc1)N(CC(F)(F)F)c1ccc(C(O)(C(F)(F)F)C(F)(F)F)cc1 [T0901317] (first compound 1 µM, partner dose 1.4 µM)	45.9%	74.7%	114%	143%	102%	180%	193%	60.8%	77.3%	40.1%	134%	562%	178%	66.8%	62%	47.1%	151%	48.2%
Cc1cc(N2CCOCC2)cc2[nH]c(-c3c(NC[C@@H](O)c4cccc(Cl)c4)cc[nH]c3=O)nc12 + COc1ccc2c(c1)CCC1C2CCC2(C)C(NCCCCCCN3C(=O)C=CC3=O)CCC12 [U73122] (first compound 0.2 µM, partner dose 0.4 µM)	88.7%	115%	116%	258%	317%	322%	227%	116%	42.4%	90.9%	91%	241%	109%	148%	55.7%	84.2%	172%	93.9%

Record cards (already shown). Order of values: cleaved PARP positive nuclei fraction (501Mel) | cleaved PARP positive nuclei fraction (A101D) | cleaved PARP positive nuclei fraction (A2058) | cleaved PARP positive nuclei fraction (A375) | cleaved PARP positive nuclei fraction (C32) | cleaved PARP positive nuclei fraction (CBRC013) | cleaved PARP positive nuclei fraction (CBRC014) | cleaved PARP positive nuclei fraction (CBRC016) | cleaved PARP positive nuclei fraction (CBRC017) | cleaved PARP positive nuclei fraction (CBRC034) | cleaved PARP positive nuclei fraction (COLO792) | cleaved PARP positive nuclei fraction (COLO800) | cleaved PARP positive nuclei fraction (COLO829) | cleaved PARP positive nuclei fraction (G361) | cleaved PARP positive nuclei fraction (IPC-298) | cleaved PARP positive nuclei fraction (IST-MEL1) | cleaved PARP positive nuclei fraction (LB2518-MEL) | cleaved PARP positive nuclei fraction (LOXIMVI)
O=C(Nc1cccc(Cl)c1)Nc1ncc(CCNc2ncnc3ccsc23)s1 + O=C(O)C(=O)Nc1sc2c(c1C(=O)O)CCNC2 [TCS401] (first compound 0.0008 µM, partner dose 1.66667 µM) in the list: 75% | 123% | 77.1% | 140% | 39.1% | 439% | 97% | 63.6% | 59.1% | 86.4% | 67% | 122% | 110% | 101% | 39.1% | 131% | 82% | 33.4%
O=C(Nc1cccc(Cl)c1)Nc1ncc(CCNc2ncnc3ccsc23)s1 + CCc1ccc(CCOc2ccc(CC3SC(=O)NC3=O)cc2)nc1 [pioglitazone] (first compound 0.0008 µM, partner dose 2 µM) in the list: 176% | 78.6% | 63.6% | 140% | 125% | 38% | 111% | 126% | 178% | 86.9% | 70.3% | 55.3% | 63.7% | 122% | 29.1% | 43.5% | 66.7% | 49.6%
